The list shows only some results of the screen, not a fair sample: its compounds were picked by chemical class. Other doses and runs of a compound may be missing. T/C is the treated group as % of the vehicle group. For survival time, this PubChem deposit counts one and a half times the control or more as active, and values a quarter to a half above the control carry no call in these data; other NCI protocols may use other cut-offs. Some entries show no survivor count and are marked so; the dose need not have been tolerated. Schedules are NCI's codes, read here as Q, the interval in days (D) or hours (H), X, the number of doses.
Tested on: CD2F1 mice, intracerebral L1210 leukemia, survival T/C
Experiment: NCI In Vivo Anticancer Drug Screen. Data for tumor model L1210 Leukemia (intracerebral) in CD2F1 (CDF1) mice
Details: T/C endpoint: median survival time, schedule: Q01DX001 (ip), higher T/C = longer survival
Description: The antitumor activity of compounds was measured in mice bearing transplantable tumors. Survival or tumor size were measured and the results are expressed as the measurement made in the treated group (T) divided by the measurement made in the vehicle treated control group (C). The tumor model used in this assay is L1210 Leukemia (intracerebral) in CD2F1 (CDF1) mice

NC1CCCCC1.NP(=O)(O)N(CCCl)CCCl
T/C (dose: 40.0 mg/kg/injection, vehicle: saline): 94 % of control [survivor count not shown] | T/C (dose: 80.0 mg/kg/injection, vehicle: saline): 95 % of control [survivor count not shown] | T/C (dose: 160.0 mg/kg/injection, vehicle: saline): 106 % of control [survivor count not shown]

O=NN(CCSCCCl)C(=O)NC1CCCCC1
T/C (dose: 4.0 mg/kg/injection, vehicle: other): 102 % of control [survivor count not shown] | T/C (dose: 8.0 mg/kg/injection, vehicle: other): 102 % of control [survivor count not shown] | T/C (dose: 16.0 mg/kg/injection, vehicle: other): 116 % of control [survivor count not shown] | T/C (dose: 32.0 mg/kg/injection, vehicle: other): 97 % of control [survivor count not shown] | T/C (dose: 128.0 mg/kg/injection, vehicle: other): 87 % of control [survivor count not shown]

— PubChem BioAssay AID260 (DTP/NCI, 2004)
